Drawing on patent US7049135, this text covers binding for one molecule.

These are yes or no findings as the source states them, for the method shown. Some binding calls cover weakened binding; strength is not graded here. Tags and fused reporters may be left off the sequences shown.

The experiment concerns the target T1, IMPp75: intracellular domain of the p75 rat neurotrophin receptor (p75ICD) fused C-terminally to the infectivity-mediating domains (N1-N2) of gIII (filamentous phage; rat) (UniProt P07174).
T1 sequence (looked up): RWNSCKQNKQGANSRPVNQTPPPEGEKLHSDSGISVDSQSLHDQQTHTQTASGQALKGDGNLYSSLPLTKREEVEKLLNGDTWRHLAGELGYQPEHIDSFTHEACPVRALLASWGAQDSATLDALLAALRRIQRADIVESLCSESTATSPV
The experiment can be described thus: selectively-infective phage (SIP).

Take CIVYHAHYLVAKC (peptide, not shown: large carriers): the binding result was “binds”.
